Our source for the binding values is publication PMC12824264.

For assay [1], the target named is T1, BMP10 growth factor domain (GFD) dimer (human) (UniProt O95393).
T1 sequence: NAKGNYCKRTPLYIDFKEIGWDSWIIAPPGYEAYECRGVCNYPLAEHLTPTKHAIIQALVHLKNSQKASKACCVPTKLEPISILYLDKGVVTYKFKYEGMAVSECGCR
The assay is described as follows: SEC; untagged monomeric BMPRII ECD or ActRIIB ECD with BMP9 or BMP10 GFD; physiological buffer conditions such as PBS; both purified. For orientation: Size exclusion chromatography separates by hydrodynamic size, large species first.

For a further assay, the target named is T2, sENG-Fc (UniProt P17813).
T2 sequence: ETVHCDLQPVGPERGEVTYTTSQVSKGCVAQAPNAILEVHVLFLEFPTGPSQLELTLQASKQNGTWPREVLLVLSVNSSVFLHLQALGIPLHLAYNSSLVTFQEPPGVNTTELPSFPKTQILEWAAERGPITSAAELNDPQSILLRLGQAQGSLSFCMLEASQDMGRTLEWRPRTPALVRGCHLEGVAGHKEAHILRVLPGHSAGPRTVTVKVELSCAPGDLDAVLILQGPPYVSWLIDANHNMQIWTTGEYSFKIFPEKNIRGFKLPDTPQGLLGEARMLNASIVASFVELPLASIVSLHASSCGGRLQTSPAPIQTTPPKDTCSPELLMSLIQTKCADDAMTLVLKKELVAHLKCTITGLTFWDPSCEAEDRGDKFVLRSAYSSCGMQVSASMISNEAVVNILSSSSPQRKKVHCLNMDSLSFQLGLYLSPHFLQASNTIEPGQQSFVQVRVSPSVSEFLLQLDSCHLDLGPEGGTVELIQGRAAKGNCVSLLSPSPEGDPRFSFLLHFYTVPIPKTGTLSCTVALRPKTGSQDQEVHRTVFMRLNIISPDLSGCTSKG
Put plainly: SPR; Biacore T200; sENG-Fc amine-coupled on a CM5 chip; BMP9 or BMP10 with and without ALK1 ECD; 10 mM HEPES pH 7.4, 150 mM NaCl, 3.4 mM EDTA, 0.5 mg/ml BSA, 0.005% P20, 25 C; both purified. On the technique in general: Surface plasmon resonance follows binding to a sensor surface in real time, without labels.

No constants are given. Whether binding was seen depends on the method and setting. Some entries that bind do so weakly or less than the wild type. For part of these data: Sequences can lack the tags named with a protein.

B1: activin receptor type IIB (ActRIIB) extracellular domain (domain or fragment, UniProt Q13705 24-115)
chain: AETRECIYYNANWELERTNQSGLERCEGEQDKRLHCYASWRNSSGTIELVKKGCWLDDFNCYDRQECVATEENPQVYFCCCEGNFCNERFTH
Take B1: the binding result in assay [1] was “no binding”.

B2: BMP9 growth factor domain (GFD) dimer (ligand, UniProt Q9UK05 320-429)
chain: SAGAGSHCQKTSLRVNFEDIGWDSWIIAPKEYEAYECKGGCFFPLADDVTPTKHAIVQTLVHLKFPTKVGKACCVPTKLSPISVLYKDDMGVPTLKYHYEGMSVAECGCR
Take B2: the binding result with sENG-Fc is listed as “binds”.

B3: BMP10 growth factor domain (GFD) dimer (ligand, UniProt O95393 317-424)
chain: T1 sequence
As to B3, the binding result in the assay with sENG-Fc is “binds”.
